PubChem BioAssay AID1508600 (Functional Genomics Laboratory (NCATS/FGL), 2020)
The campaign covered roughly 53,000 sequences. About 3,700 (7%) were called active.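 How the source made its calls: active means gene knockdowns whose robust z-score for IL-1 alpha signal is at least 2 or at most -2, so actives lie on both sides; inactive means the rest.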 The list shows a part of the results.

test: Components of the Cytosolic LPS Sensing Pathway: Gene Identification via Genome-wide siRNA Screen; settings: RAW264.7 macrophages, IL-1a HTRF, actives lie on both sides, screened at 100 nM (by protocol), cells primed 5 h with Pam3CSK4 first;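 further: robust z of the log signal after scaling to non-targeting control siRNA wells of the plate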
Method in brief: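 Mouse macrophage line RAW264.7 is transfected with siRNA (100 nM final), grown 48h, primed with TLR ligand Pam3CSK4 5 h and given intracellular LipidA 24 h. IL-1a in supernatant is read by HTRF and viability by luminescence.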

Sequence | z-score
GGCAAAUAAGAGAUAUCCATT against Chmp3 | inactive: 0.793
GGAAGUGAGAAGAUGGAUATT against Fam163b | inactive: 0.93
GGGACAUUCCUUAUCAUAATT against Pde3a | inactive: -1.43
CCGAGGUGAUUAGGAUAACTT against Traf3ip1 | inactive: -0.694
CGUACUUAUUGUUCCUAUCTT against Wdr93 | inactive: 1.67
CCAGAAGAACAAGGAAGUATT against Gm6460 | inactive: -0.914
GCCAAGUGUAGGGACUCAGTT against A630052C17Rik | inactive: -1.66
GGAGAUCACACAACAUUUUTT against Ndrg1 | inactive: 1.49
GGGAAACUGGUACAGUACATT against Ces1c | inactive: -0.317
CCUUUGUGGAAUACGUCAUTT against Fa2h | inactive: -0.229
GCUACCGUGGGCGAUGUAATT against Dbi | inactive: -0.37
AGUCUACAACUACUCCUGUTT against Glrx2 | inactive: 0.728
GCCAUACACAGUGGCAUAATT against Zfp811 | inactive: 0.395
GGCCAAACAUAGAACUGGUTT against Mbd3l2 | inactive: -1.73
GCGACAUCACAAGAAUCGATT against Fancd2 | inactive: -0.979
CCAUAUUCAAGGGUGAAAUTT against Dsg3 | inactive: 0.809
GGGUUGACUUCAAGAACAUTT against Cxcl2 | inactive: 1.5
GGCCUCCCUACUUGAAGACTT against Crip3 | inactive: -0.0974
GGUUAAAUAUACCUAAGGATT against Spo11 | inactive: 0.0736
GGAGUUUAUAACACAUAGGTT against Adamtsl1 | inactive: 0.858
GGGAAUUUGGGCAUGAUCATT against Olfr44 | active: -2.02
GGCGAGAAUUUCAUCGGGATT against Tulp1 | inactive: -0.00281
CCCUUUUACUGAGAAUAAUTT against Lamtor3 | inactive: -0.673

Sequence | z-score
CGUCAACUCUACUGGACCATT against Grp | inactive: -0.199
GGUCUUCCAAGGUCAGAAGTT against Cyp2d10 | inactive: 1.5
GGAUCCUUCGGGUCUUAAATT against Kctd9 | inactive: 0.646
GGGUGAAAUUUUUAAUCGGTT against Lbp | inactive: -0.963
GGACAUGCUUAUCCUUUGUTT against Slc38a5 | inactive: -1.55
GGGAAGAACAUCUCUGCUCTT against S100a3 | inactive: 0.141
GGAUGAUUCCAAGAUGCUATT against Lin28b | inactive: 0.914
GGAUGAAAGUCCUGGACAGTT against Gli3 | active: 5.97
CCUCUCUAGGCCAUGUUCUTT against 1110008P14Rik | inactive: 0.381
GGAAUAUCUUCUGAUUGUCTT against Dynlrb2 | inactive: -0.393
GGAGUCAUAUCACAACUCATT against Ldb2 | inactive: 1.22
GGAACAGUCACAGACAGCUTT against Vps35l | inactive: -0.189
GGAUAUGACUAGGUGAAUUTT against Ebf3 | inactive: -1.04
GGGAAUAUAAUUAAAGGUGTT against Sptlc2 | inactive: -0.653
GCCCAGCAUGGAUAGAUUATT against Mis18bp1 | inactive: 0.466
GGAAUUCAAGUUCAUCCUGTT against P2ry4 | inactive: 1.56
GGAAAUUUUUUCCUUUCCUTT against Olfr211 | inactive: -0.638
GGUCACAAGUGUAAUACUATT against Bag4 | inactive: 0.333
GCACAUAGUGUAUCUAUACTT against Cd86 | inactive: -1.24
GGACGUGACCAUGAUGUCUTT against Oacyl | active: -3.46
GGAGAAGAUCGGAUGGCGATT against Itgb5 | inactive: -1.79
CGCUUUCACGACAUGGAACTT against Tas1r1 | inactive: 0.304
AGAGGAAGCUCGAAAACGGTT against Zrsr2 | inactive: -0.2

Quoted at random: 2 records from the list, in no set order.
Sequence | z-score
GGACAUGCUUAUCCUUUGUTT against Slc38a5 | inactive: -1.55
GGGAAGAACAUCUCUGCUCTT against S100a3 | inactive: 0.141

A few values from the entries so far:
GCACAUAGUGUAUCUAUACTT against Cd86 | z-score: inactive: -1.24
GGAUCCUUCGGGUCUUAAATT against Kctd9 | z-score: inactive: 0.646
GGAAUAUCUUCUGAUUGUCTT against Dynlrb2 | z-score: inactive: -0.393

More records:

Sequence | z-score
GGCAAAAUCCCAUACGAAATT against Itk | inactive: 0.0298
CCACAGGUUACAACAUAAATT against Pign | inactive: -1.45
GGUAACCAUUUCUUCUGUUTT against Crym | inactive: -0.289
GCAAUGGUUUCGGCUACGATT against Hoxb3 | active: 2.18
GCUGAGCAAUCUGUAGGGCTT against Spry3 | inactive: 0.884
GGAGUUCACUGUGCUGAUGTT against Ppbp | inactive: -0.536
GGGAAACUCUCAGAUGAAGTT against Sh2d7 | inactive: -1.9
GGAUCUUCGUACUAGAGGCTT against Cenpx | inactive: 0.0358
CCCACCACGAAAACUUAUGTT against Hnrnph1 | inactive: 0.952
GGCAAGAGCGGAAAAUCACTT against Foxo1 | inactive: -0.492
GCUAGAUUUGAUGGUUCAGTT against Cacng5 | inactive: -1.62
GGUUACGAAAAGCUGCCUUTT against Ints14 | inactive: -0.125
GGUGAAGGUGAACAAGGACTT against Myh9 | active: 2.92
GGGUAGAAUUGUUUUCCUUTT against Clic4 | inactive: 1.51
GGCUGUAAGGGAACAGCUATT against Irf2bp1 | inactive: -0.615
GGAUUCCAAGCUUUCGAAATT against Golim4 | inactive: 0.656
GGACUGAACAGUAUUAAGUTT against Tmco3 | inactive: 0.575
CCAGCUAUGAAUCAGAAUGTT against Bend6 | active: 2.6
GGAGAGGACAAAUUAAAGATT against Ywhae | inactive: 0.763
GGGUGCAUUUAAGUUCUAATT against Nrbf2 | inactive: 1.49
GCUGAAACAGUUUGAGCGATT against Bcar1 | inactive: 0.115
GGAAACAACCUGCUGAUCGTT against Sp2 | inactive: 0.166
GGAGACCAUCAAGAAGAGCTT against Rbm47 | inactive: -1.36
